The results in this text go back to paper PMC11253400.

Amino acid sequences for entries named in this document (tags omitted).
UniProt Q9R1E0: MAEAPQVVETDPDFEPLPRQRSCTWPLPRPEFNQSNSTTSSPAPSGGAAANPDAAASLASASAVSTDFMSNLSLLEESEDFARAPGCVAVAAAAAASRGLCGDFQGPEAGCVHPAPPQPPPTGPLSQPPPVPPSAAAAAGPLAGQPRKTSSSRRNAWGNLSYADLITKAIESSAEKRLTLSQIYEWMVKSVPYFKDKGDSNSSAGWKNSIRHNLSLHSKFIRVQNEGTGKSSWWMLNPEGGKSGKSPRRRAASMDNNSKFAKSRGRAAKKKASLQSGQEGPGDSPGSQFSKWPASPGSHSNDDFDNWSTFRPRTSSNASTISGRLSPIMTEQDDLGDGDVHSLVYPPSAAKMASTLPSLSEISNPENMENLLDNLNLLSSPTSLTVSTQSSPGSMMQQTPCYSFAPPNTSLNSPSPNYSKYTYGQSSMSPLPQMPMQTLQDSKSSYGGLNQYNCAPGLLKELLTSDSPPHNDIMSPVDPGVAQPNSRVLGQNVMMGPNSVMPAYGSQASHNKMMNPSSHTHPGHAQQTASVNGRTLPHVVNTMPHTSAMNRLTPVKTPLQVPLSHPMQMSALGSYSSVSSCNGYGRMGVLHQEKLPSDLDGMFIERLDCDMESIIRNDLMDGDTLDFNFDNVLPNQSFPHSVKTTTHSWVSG
UniProt Q9WVH4: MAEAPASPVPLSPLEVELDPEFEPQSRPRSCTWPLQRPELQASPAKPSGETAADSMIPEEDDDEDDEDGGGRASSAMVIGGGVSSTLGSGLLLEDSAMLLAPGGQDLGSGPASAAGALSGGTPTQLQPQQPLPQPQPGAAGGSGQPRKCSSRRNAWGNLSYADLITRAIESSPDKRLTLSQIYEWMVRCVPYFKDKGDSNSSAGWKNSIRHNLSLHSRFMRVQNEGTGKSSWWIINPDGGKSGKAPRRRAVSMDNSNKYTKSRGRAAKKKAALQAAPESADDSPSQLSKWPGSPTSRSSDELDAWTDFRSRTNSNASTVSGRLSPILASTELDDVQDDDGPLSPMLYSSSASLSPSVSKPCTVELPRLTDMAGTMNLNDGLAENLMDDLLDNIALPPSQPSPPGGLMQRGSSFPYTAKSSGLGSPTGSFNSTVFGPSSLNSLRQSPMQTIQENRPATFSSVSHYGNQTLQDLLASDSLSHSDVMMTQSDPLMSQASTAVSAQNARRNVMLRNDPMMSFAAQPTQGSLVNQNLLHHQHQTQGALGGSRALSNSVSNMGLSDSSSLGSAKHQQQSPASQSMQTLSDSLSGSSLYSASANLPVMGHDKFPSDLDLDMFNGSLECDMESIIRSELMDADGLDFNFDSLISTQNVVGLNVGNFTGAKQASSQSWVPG

These are yes or no findings as the source states them, for the method shown. Binding seen in cells or lysates may run through a third protein. Some entries that bind do so weakly or less than the wild type.

The test concerns the target T1, SIRT1 (mouse (endogenous in mesangial cells; species only loosely stated)) (UniProt Q923E4).
T1 sequence: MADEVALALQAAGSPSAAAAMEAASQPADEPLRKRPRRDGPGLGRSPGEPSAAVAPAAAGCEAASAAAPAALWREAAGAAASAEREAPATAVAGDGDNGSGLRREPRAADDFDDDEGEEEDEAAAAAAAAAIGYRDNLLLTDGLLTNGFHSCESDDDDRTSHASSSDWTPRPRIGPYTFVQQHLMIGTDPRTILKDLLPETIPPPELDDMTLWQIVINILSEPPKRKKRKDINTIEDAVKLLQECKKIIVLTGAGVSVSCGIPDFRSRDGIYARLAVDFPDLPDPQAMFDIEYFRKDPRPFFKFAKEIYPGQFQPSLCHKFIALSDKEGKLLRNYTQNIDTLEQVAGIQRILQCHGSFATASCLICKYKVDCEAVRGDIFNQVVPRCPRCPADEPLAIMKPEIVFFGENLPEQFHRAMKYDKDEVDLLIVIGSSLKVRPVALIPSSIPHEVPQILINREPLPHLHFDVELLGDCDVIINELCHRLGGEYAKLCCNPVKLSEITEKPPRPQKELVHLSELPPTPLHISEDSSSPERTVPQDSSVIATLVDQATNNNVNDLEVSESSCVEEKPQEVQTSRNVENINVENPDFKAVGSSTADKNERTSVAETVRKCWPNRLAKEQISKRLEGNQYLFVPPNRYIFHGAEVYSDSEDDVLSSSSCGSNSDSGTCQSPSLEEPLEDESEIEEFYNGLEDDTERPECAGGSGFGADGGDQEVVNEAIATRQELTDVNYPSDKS
Nature of the test: co-IP; Pierce Co-Immunoprecipitation Kit; cell lysates kept with anti-SIRT1 antibody (ab110304) at 4 °C for 12 h, then magnetic beads coupled with rabbit anti-mouse IgG for 8 h at 4 °C; boiled with SDS buffer, western blotting. For orientation: In western blotting, separated proteins are transferred to a membrane and probed.

On to FOXO1 (from UniProt Q9R1E0 1-652), for which the binding result is on record as “binds”. As for FOXO3a (from UniProt Q9WVH4 1-672), the binding result is reported as “binds”.
